This is an account of results in patent publication US20260015418A1.

Results are given in words; binding and its absence hold for the method and conditions named. Some results given as binding are weak or reduced against the parent protein; the word gives no strength.

This assay deals with T1, human B7-H3 on CHO-huROR1-huB7-H3 cells (human) (UniProt Q5ZPR3).
T1 sequence (looked up): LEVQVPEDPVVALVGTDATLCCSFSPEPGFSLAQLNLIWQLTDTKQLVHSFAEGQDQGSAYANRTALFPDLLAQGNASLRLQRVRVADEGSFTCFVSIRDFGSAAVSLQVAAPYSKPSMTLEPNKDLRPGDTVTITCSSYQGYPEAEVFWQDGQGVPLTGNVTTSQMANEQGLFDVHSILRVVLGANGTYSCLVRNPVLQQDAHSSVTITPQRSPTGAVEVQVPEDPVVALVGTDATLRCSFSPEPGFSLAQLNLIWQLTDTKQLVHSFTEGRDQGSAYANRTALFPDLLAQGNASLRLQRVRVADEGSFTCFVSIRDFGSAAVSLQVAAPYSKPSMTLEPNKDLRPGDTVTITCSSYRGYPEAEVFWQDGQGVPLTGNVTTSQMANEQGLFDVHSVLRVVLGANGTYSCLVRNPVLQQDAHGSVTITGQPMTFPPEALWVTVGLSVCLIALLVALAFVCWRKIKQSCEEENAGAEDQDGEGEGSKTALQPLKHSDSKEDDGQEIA
Put plainly: flow cytometry on CHO-huROR1-huB7-H3 cells, FITC anti-human IgG, MFI over secondary antibody only. For orientation: A flow cytometer gives signals particle by particle.

B1: B5 (antibody, V domains shown)
VH: EVQLLESGGGLVQPGGSLRLSCAASGFTFSDYAMSWVRQAPGKGLEWVSSISSGSGSIYYADSVKGRFTISRDNSKNTLYLQMNSLRAEDTAVYYCAKNLIPLDYWGQGTLVTVSS
VL: QSVLTQPPSASGTPGQRVTISCSGSSSNIGSNAVSWYQQLPGTAPKLLIYYNSHRPSGVPDRFSGSKSGTSASLAISGLRSEDEADYYCGSWDASLNAYVFGGGTKLTVL
As for B1, the binding entry was “binds”.
